Data: the supplement of paper PMC10032668
The list shows a part of the results. The list holds hits alone, and they repeat only in part.

Protein sequences, listed by entry. Tags and fused reporters are not part of them.
EEF1A2, Q05639, UniProt Q05639, whole entry: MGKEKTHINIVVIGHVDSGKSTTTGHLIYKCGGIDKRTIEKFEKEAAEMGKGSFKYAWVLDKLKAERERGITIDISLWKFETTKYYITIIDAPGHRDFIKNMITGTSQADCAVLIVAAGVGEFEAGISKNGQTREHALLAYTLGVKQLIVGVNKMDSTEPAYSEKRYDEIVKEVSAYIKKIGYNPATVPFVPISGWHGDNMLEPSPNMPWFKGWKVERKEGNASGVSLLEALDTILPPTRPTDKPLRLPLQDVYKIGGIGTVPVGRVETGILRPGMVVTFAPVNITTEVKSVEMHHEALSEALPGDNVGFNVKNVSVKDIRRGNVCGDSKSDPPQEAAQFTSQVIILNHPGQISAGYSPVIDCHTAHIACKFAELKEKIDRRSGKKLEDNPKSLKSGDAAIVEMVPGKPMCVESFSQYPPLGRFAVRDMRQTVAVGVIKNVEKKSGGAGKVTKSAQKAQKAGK
GSN, P06396, UniProt P06396, whole entry: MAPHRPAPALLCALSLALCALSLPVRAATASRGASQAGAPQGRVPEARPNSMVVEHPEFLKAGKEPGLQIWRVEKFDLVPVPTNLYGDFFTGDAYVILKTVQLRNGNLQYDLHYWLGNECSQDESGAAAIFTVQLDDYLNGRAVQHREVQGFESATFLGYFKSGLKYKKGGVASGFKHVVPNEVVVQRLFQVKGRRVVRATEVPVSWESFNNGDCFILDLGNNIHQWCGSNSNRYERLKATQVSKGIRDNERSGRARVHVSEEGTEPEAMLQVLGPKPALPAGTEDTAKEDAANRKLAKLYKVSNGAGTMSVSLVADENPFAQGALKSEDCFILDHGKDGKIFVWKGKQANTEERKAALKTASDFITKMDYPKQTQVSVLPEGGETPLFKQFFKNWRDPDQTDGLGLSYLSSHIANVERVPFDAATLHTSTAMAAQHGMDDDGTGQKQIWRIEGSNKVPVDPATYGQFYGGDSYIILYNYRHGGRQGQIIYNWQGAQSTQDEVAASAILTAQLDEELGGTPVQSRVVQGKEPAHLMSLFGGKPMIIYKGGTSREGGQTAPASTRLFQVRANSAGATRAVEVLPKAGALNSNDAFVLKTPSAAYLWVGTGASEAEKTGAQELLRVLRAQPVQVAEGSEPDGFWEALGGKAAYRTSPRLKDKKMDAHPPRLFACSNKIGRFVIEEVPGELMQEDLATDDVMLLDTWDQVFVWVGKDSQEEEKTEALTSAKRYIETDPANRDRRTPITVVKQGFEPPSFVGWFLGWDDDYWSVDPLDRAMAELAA
MED12, Q93074, UniProt Q93074, whole entry: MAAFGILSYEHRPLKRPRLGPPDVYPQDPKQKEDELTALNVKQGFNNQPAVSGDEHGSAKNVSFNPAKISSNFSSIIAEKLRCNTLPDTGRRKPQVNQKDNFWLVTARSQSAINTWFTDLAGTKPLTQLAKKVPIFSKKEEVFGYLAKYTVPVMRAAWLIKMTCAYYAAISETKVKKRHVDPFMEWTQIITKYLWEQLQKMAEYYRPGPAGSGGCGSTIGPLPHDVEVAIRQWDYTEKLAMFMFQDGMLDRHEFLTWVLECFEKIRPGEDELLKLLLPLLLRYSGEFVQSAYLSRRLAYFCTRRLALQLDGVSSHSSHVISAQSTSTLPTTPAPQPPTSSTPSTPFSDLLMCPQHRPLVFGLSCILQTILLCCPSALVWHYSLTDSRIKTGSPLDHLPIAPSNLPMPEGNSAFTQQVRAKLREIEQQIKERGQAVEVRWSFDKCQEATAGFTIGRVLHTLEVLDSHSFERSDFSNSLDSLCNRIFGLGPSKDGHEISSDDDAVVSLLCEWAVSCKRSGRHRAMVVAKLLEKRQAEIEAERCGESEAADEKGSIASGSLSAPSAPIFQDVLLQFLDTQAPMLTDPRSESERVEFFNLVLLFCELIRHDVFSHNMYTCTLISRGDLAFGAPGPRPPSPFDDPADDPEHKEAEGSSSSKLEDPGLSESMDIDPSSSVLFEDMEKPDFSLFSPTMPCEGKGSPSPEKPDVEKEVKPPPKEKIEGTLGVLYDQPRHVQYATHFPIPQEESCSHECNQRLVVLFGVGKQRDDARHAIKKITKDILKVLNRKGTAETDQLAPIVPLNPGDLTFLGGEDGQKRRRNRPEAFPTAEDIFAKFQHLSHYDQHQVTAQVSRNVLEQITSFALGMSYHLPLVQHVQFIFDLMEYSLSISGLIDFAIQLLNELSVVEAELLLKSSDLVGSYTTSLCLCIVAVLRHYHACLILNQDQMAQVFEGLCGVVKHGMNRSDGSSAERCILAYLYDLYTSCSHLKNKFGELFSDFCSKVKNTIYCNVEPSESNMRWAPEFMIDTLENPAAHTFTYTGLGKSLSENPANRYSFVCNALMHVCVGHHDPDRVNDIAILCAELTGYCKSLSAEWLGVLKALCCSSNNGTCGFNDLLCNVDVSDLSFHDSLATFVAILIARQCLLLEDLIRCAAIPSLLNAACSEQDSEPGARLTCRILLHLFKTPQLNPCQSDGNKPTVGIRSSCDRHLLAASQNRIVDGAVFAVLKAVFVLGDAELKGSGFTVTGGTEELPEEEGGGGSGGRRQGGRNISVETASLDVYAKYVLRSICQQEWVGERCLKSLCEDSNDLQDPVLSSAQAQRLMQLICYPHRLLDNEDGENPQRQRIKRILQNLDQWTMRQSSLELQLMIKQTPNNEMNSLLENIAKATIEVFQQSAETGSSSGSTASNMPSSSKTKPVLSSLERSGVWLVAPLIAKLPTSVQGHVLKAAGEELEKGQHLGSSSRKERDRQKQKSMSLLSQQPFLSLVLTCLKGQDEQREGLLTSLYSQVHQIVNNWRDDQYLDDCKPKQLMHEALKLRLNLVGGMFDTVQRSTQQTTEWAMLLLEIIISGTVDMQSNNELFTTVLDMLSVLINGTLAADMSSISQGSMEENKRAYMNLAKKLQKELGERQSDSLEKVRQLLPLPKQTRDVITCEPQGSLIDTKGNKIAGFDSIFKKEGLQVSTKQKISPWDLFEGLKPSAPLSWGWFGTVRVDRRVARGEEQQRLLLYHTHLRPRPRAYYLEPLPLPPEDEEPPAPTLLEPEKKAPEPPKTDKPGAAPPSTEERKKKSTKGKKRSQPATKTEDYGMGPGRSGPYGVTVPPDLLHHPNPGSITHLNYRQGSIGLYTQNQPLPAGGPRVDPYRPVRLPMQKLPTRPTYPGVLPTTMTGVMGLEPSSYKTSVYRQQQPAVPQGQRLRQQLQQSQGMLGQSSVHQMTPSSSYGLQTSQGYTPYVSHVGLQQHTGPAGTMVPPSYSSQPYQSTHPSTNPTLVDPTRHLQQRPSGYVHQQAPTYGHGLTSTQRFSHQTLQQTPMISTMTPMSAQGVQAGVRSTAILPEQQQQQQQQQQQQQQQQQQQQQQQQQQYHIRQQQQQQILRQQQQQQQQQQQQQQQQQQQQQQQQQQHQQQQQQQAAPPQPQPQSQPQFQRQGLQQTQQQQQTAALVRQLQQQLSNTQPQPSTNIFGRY
NDUFB4, O95168, UniProt O95168, whole entry: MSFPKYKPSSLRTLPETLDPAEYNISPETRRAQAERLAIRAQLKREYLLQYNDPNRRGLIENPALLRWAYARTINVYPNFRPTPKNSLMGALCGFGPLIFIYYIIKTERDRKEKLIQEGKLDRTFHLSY
TUBB8, Q3ZCM7, UniProt Q3ZCM7, whole entry: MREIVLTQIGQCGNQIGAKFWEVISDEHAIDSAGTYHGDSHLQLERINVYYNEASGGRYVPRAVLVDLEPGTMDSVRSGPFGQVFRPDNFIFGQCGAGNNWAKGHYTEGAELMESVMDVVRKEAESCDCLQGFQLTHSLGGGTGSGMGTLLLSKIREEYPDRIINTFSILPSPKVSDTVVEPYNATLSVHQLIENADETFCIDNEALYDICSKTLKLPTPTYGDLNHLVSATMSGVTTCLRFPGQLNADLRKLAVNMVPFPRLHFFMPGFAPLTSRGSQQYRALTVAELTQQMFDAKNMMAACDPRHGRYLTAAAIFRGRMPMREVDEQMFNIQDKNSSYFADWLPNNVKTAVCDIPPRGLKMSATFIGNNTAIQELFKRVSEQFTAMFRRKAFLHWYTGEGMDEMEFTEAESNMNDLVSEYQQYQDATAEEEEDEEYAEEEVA
C7orf31, Q8N865, UniProt Q8N865, whole entry: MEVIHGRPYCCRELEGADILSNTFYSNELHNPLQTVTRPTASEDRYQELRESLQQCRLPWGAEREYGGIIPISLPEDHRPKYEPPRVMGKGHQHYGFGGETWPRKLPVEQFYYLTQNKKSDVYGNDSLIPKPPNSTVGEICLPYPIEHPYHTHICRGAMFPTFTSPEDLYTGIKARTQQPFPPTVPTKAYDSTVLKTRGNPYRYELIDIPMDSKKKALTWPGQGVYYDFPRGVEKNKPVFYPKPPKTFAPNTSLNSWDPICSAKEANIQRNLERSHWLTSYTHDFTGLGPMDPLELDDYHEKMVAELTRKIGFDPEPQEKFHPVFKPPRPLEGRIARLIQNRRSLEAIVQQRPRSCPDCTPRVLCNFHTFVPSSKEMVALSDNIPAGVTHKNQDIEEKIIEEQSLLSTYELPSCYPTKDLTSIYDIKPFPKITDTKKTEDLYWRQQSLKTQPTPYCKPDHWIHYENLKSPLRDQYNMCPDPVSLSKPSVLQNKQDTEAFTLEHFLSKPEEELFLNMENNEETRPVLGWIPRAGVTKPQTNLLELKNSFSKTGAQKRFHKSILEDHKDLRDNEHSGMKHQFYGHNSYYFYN
ITGAD, Q13349, UniProt Q13349, whole entry: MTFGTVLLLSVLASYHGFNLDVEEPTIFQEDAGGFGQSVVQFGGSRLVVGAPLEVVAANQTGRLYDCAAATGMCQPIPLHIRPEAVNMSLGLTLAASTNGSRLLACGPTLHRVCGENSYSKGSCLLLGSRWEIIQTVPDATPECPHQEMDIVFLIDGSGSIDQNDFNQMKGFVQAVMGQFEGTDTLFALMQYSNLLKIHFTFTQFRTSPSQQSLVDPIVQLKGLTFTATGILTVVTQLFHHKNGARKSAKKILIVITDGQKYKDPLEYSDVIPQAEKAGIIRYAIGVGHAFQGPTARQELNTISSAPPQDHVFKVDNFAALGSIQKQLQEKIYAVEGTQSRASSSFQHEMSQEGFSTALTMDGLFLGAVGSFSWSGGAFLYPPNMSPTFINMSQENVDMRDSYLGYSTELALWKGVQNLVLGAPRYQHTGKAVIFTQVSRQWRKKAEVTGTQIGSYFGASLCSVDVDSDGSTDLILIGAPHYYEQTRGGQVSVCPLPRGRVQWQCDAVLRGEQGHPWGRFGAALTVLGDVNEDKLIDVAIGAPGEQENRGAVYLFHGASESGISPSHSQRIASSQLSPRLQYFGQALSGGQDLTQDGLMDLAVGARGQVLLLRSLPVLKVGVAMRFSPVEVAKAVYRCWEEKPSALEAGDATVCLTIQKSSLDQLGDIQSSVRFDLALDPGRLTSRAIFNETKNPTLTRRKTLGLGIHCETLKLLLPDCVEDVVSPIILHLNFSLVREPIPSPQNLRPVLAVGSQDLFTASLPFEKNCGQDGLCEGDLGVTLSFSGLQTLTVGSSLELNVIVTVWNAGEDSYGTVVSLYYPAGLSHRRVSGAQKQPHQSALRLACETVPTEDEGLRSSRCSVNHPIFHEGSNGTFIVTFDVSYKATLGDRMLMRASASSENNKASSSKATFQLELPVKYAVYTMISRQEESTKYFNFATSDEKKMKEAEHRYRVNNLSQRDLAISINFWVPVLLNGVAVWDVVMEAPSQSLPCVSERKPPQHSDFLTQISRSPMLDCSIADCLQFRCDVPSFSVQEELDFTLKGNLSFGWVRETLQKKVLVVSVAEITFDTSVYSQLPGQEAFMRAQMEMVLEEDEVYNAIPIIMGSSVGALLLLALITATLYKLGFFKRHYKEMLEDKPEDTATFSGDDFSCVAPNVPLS
PSMC6, P62333, UniProt P62333, whole entry: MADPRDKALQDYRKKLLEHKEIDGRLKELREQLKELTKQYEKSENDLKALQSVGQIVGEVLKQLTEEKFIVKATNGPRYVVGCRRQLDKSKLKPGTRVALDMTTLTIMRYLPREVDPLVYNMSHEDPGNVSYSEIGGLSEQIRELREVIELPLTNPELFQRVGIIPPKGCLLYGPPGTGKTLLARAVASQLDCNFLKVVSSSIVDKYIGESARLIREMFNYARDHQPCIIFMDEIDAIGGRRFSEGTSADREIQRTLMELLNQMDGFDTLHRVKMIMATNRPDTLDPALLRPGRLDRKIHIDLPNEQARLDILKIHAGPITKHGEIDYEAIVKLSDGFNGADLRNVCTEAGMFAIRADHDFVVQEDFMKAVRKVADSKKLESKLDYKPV

Tests used:
Test in all cases: PRISMA enrichment of interactor (LFQ) in peptide spot vs all other peptide spots (log2 fold change); higher = stronger / more specific binding of the interactor to the peptide
ANP32E, Q9BTT0 = biological target: ANP32E, Q9BTT0
Method: (§1)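 PRISMA: 15-aa overlapping tiles (offset 8 aa) of 60 microproteins, plus SOS1/GLUT1 control peptides, were spot-synthesized on cellulose membranes in triplicate. Membranes were incubated with benzonase-treated HEK293T lysate, and bound proteins were identified by LC-MS/MS with LFQ. Enrichment is the log2 fold change of each protein in one spot versus all other spots. Only interactors passing the significance cutoff are listed.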

BZW1, Q7L1Q6 = biological target: BZW1, Q7L1Q6
Method: as §1

EEF1A2, Q05639 = biological target: EEF1A2, Q05639
Method: as §1

ESYT2, A0FGR8 = biological target: ESYT2, A0FGR8
Method: as §1

KRT6B, P04259 = biological target: KRT6B, P04259
Method: as §1

MEPCE, Q7L2J0 = biological target: MEPCE, Q7L2J0
Method: as §1

MTG1, Q9BT17 = biological target: MTG1, Q9BT17
Method: as §1

NOL10, Q9BSC4 = biological target: NOL10, Q9BSC4
Method: as §1

NUDT16L1, Q9BRJ7 = biological target: NUDT16L1, Q9BRJ7
Method: as §1

PAK1IP1, Q9NWT1 = biological target: PAK1IP1, Q9NWT1
Method: as §1

PSMG1, O95456 = biological target: PSMG1, O95456
Method: as §1

RBM8A, Q9Y5S9 = biological target: RBM8A, Q9Y5S9
Method: as §1

TFAM, Q00059 = biological target: TFAM, Q00059
Method: as §1

TMEM201, Q5SNT2 = biological target: TMEM201, Q5SNT2
Method: as §1

ZNF483, Q8TF39 = biological target: ZNF483, Q8TF39
Method: as §1

ZNF668, Q96K58 = biological target: ZNF668, Q96K58
Method: as §1

EHD1, Q9H4M9 = biological target: EHD1, Q9H4M9
Method: as §1

FAM91A1, Q658Y4 = biological target: FAM91A1, Q658Y4
Method: as §1

[1] = substrate: PPIF, P30405
Method: as §1

PRMT1, Q99873 = biological target: PRMT1, Q99873
Method: as §1

PSME3, P61289 = biological target: PSME3, P61289
Method: as §1

RAB10, P61026 = biological target: RAB10, P61026
Method: as §1

SNW1, Q13573 = biological target: SNW1, Q13573
Method: as §1

ANXA5, P08758 = biological target: ANXA5, P08758
Method: as §1

BMS1, Q14692 = biological target: BMS1, Q14692
Method: as §1

CFAP20, Q9Y6A4 = biological target: CFAP20, Q9Y6A4
Method: as §1

CIP2A, Q8TCG1 = biological target: CIP2A, Q8TCG1
Method: as §1

DHX57, Q6P158 = biological target: DHX57, Q6P158
Method: as §1

GNPDA1, P46926 = biological target: GNPDA1, P46926
Method: as §1

GSN, P06396 = biological target: GSN, P06396
Method: as §1

HSD17B10, Q99714 = biological target: HSD17B10, Q99714
Method: as §1

KIFC1, Q9BW19 = biological target: KIFC1, Q9BW19
Method: as §1

MED12, Q93074 = biological target: MED12, Q93074
Method: as §1

MRPL18, Q9H0U6 = biological target: MRPL18, Q9H0U6
Method: as §1

MRPL34, Q9BQ48 = biological target: MRPL34, Q9BQ48
Method: as §1

NAE1, Q13564 = biological target: NAE1, Q13564
Method: as §1

NDUFB4, O95168 = biological target: NDUFB4, O95168
Method: as §1

SRSF5, Q13243 = biological target: SRSF5, Q13243
Method: as §1

TUBB8, Q3ZCM7 = biological target: TUBB8, Q3ZCM7
Method: as §1

ANXA1, P04083 = biological target: ANXA1, P04083
Method: as §1

APOC4, P55056 = biological target: APOC4, P55056
Method: as §1

BRMS1L, Q5PSV4 = biological target: BRMS1L, Q5PSV4
Method: as §1

C7orf31, Q8N865 = biological target: C7orf31, Q8N865
Method: as §1

CCAR1, Q8IX12 = biological target: CCAR1, Q8IX12
Method: as §1

DNAJA3, Q96EY1 = biological target: DNAJA3, Q96EY1
Method: as §1

DNAJB11, Q9UBS4 = biological target: DNAJB11, Q9UBS4
Method: as §1

FANCA, O15360 = biological target: FANCA, O15360
Method: as §1

ITGAD, Q13349 = biological target: ITGAD, Q13349
Method: as §1

NUP62, P37198 = biological target: NUP62, P37198
Method: as §1

PSMC6, P62333 = biological target: PSMC6, P62333
Method: as §1

PTGR2, Q8N8N7 = biological target: PTGR2, Q8N8N7
Method: as §1

TRMT44, Q8IYL2 = biological target: TRMT44, Q8IYL2
Method: as §1

B1: RP11-140K17.3_2 (peptide)
chain: EMSTSLSVVPRQLNF
PRISMA enrichment of interactor (log2) (ANP32E, Q9BTT0): 7.18 | PRISMA enrichment of interactor (log2) (BZW1, Q7L1Q6): 5.39 | PRISMA enrichment of interactor (log2) (EEF1A2, Q05639): 8.48 | PRISMA enrichment of interactor (log2) (ESYT2, A0FGR8): 4 | PRISMA enrichment of interactor (log2) (KRT6B, P04259): 4.81 | PRISMA enrichment of interactor (log2) (MEPCE, Q7L2J0): 4.82 | PRISMA enrichment of interactor (log2) (MTG1, Q9BT17): 5.67 | PRISMA enrichment of interactor (log2) (NOL10, Q9BSC4): 7.09 | PRISMA enrichment of interactor (log2) (NUDT16L1, Q9BRJ7): 5.06 | PRISMA enrichment of interactor (log2) (PAK1IP1, Q9NWT1): 4.74 | PRISMA enrichment of interactor (log2) (PSMG1, O95456): 5.55 | PRISMA enrichment of interactor (log2) (RBM8A, Q9Y5S9): 4.62 | PRISMA enrichment of interactor (log2) (TFAM, Q00059): 8.71 | PRISMA enrichment of interactor (log2) (TMEM201, Q5SNT2): 6.19 | PRISMA enrichment of interactor (log2) (ZNF483, Q8TF39): 4.97 | PRISMA enrichment of interactor (log2) (ZNF668, Q96K58): 6.61

B2: IDI2-AS1 (peptide)
chain: MQWPEVPALPLLSSL
PRISMA enrichment of interactor (log2) (ANP32E, Q9BTT0): 5.54 | PRISMA enrichment of interactor (log2) (EHD1, Q9H4M9): 4.81 | PRISMA enrichment of interactor (log2) (FAM91A1, Q658Y4): 6.18 | PRISMA enrichment of interactor (log2) [1]: 5.88 | PRISMA enrichment of interactor (log2) (PRMT1, Q99873): 8.46 | PRISMA enrichment of interactor (log2) (PSME3, P61289): 6.88 | PRISMA enrichment of interactor (log2) (RAB10, P61026): 4.82 | PRISMA enrichment of interactor (log2) (SNW1, Q13573): 4.43

B3: RNF10 (peptide)
chain: ATAAPLRLGGASRRV
PRISMA enrichment of interactor (log2) (ANXA5, P08758): 5.29 | PRISMA enrichment of interactor (log2) (BMS1, Q14692): 6.85 | PRISMA enrichment of interactor (log2) (CFAP20, Q9Y6A4): 6.04 | PRISMA enrichment of interactor (log2) (CIP2A, Q8TCG1): 10.2 | PRISMA enrichment of interactor (log2) (DHX57, Q6P158): 4.82 | PRISMA enrichment of interactor (log2) (GNPDA1, P46926): 4.85 | PRISMA enrichment of interactor (log2) (GSN, P06396): 3.74 | PRISMA enrichment of interactor (log2) (HSD17B10, Q99714): 5.81 | PRISMA enrichment of interactor (log2) (KIFC1, Q9BW19): 4.05 | PRISMA enrichment of interactor (log2) (MED12, Q93074): 5.51 | PRISMA enrichment of interactor (log2) (MRPL18, Q9H0U6): 4.41 | PRISMA enrichment of interactor (log2) (MRPL34, Q9BQ48): 6.61 | PRISMA enrichment of interactor (log2) (NAE1, Q13564): 4.53 | PRISMA enrichment of interactor (log2) (NDUFB4, O95168): 5.11 | PRISMA enrichment of interactor (log2) (SRSF5, Q13243): 10 | PRISMA enrichment of interactor (log2) (TUBB8, Q3ZCM7): 4.88

B4: DANCR (peptide)
chain: SMQLTLTLNTLQLHS
PRISMA enrichment of interactor (log2) (ANXA1, P04083): 3.67 | PRISMA enrichment of interactor (log2) (APOC4, P55056): 5.3 | PRISMA enrichment of interactor (log2) (BRMS1L, Q5PSV4): 9.21 | PRISMA enrichment of interactor (log2) (C7orf31, Q8N865): 4.85 | PRISMA enrichment of interactor (log2) (CCAR1, Q8IX12): 5.25 | PRISMA enrichment of interactor (log2) (DNAJA3, Q96EY1): 6.49 | PRISMA enrichment of interactor (log2) (DNAJB11, Q9UBS4): 4.2 | PRISMA enrichment of interactor (log2) (FANCA, O15360): 4.46 | PRISMA enrichment of interactor (log2) (ITGAD, Q13349): 5.15 | PRISMA enrichment of interactor (log2) (NUP62, P37198): 3.57 | PRISMA enrichment of interactor (log2) (PSMC6, P62333): 5.14 | PRISMA enrichment of interactor (log2) (PTGR2, Q8N8N7): 5.08 | PRISMA enrichment of interactor (log2) (TRMT44, Q8IYL2): 4.71
